Patent publication US8101647B2, “Spiro-oxindole compounds and their use as therapeutic agents” (Xenon Pharmaceuticals Inc., priority 2008, dated 2012)

By UniProt entry, the sequences of proteins in these tests, tags left out.
UniProt P10635, whole entry: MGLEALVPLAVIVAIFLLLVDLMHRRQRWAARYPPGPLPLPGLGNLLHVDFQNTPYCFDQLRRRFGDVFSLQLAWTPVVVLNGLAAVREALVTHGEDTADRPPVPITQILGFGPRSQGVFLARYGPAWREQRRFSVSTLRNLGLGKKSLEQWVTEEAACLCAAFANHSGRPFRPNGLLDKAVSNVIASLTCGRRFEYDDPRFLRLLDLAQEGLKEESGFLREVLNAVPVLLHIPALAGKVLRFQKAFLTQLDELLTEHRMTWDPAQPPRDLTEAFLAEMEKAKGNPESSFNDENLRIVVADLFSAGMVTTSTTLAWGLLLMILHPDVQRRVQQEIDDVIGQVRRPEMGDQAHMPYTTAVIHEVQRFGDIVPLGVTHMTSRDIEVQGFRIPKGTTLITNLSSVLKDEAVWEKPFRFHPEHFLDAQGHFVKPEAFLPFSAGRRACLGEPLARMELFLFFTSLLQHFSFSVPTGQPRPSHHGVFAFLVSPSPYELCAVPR

Molecular target: CYP2D6 (Homo sapiens, UniProt P10635)
Excerpt: Each family consists of one or more subfamilies and each subfamily contains one or more specific CYP isoforms. […] The assay is based on the CYP inhibition kit described by Vivid CYP450 Screening Kit Protocol, 2005, Invitrogen Corporation (Invitrogen Corporation, 1600 Faraday Avenue, Carlsbad, Calif. 92008, USA).
This assay is designed to assess compounds by quantifying the inhibition of the predominant human CYP isozymes involved in hepatic drug metabolism.
This assay can be used for single concentration screening or for IC50 determination. In a single concentration screening assay, the final assay concentration of the test compound is 10 μM. In an IC50 determination assay, IC50 may be determined using a 3, 6, or 12 point curve in triplicate with a chosen starting concentration diluted serially.

`C=C[C@H]1C[N@@]2CC[C@H]1C[C@@H]2[C@@H](O)c1ccnc2ccc(OC)cc12` [Quinidine] was tested, and the “% Inhibition in 10 μM assay” value was 55 +/− 15%.
